Laboratory results: PubChem BioAssay AID1259308 (NCATS, 2017)

- Purpose: 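Genes whose loss raises luciferase production in HEK293 cells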 (primary screen)
- System: human HEK293 embryonic kidney cells stably expressing firefly luciferase (HEK-CMV-Luc2-Hygro)
- Reagent: single siRNA against human genes, 0.8 pmol siRNA per well
- Time to read-out: 72 h
- Read-out: 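Reporter luminescence and viable-cell signal on separate replicate plates, given as percent of non-targeting control and median/MAD z-scores, plus per-cell luciferase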
- Scale: total luciferase, z-score and total luciferase, % of control: higher = more reporter protein produced
- Rule for the call: 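An siRNA counts as active if its total luciferase robust z-score exceeds 3; genes with two or more such siRNAs out of three were retested with fresh siRNAs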
- Meaning of the calls: active = raised luciferase; inactive = no rise
Here is one part, drawn at random, of about 59,000 deposited reagents. Of all reagents, about 1,510 (2.6%) were called active. 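Calls use total luciferase alone and ignore viability, so some active siRNAs may act by altering cell number.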 A number with no mark means an inactive call. Not all columns of the deposit are shown. Reagent sequences are not shown.

IFITM3P2 (GeneID 144383) [SID160724845] | total luciferase, z-score = -1.61; total luciferase, % of control = 49.8
IFITM3P2 (GeneID 144383) [SID160724846] | total luciferase, z-score = 3.28 (active); total luciferase, % of control = 147
IFITM3P2 (GeneID 144383) [SID160758141] | total luciferase, z-score = 0.468; total luciferase, % of control = 91.2
LINC02694 (GeneID 400359) [SID160766957] | total luciferase, z-score = 0.726; total luciferase, % of control = 96.3
LINC02694 (GeneID 400359) [SID160766958] | total luciferase, z-score = -1.08; total luciferase, % of control = 60.4
LINC02694 (GeneID 400359) [SID160766959] | total luciferase, z-score = 1.47; total luciferase, % of control = 111
G6PC2 (GeneID 57818) [SID160746732] | total luciferase, z-score = 0.945; total luciferase, % of control = 101
G6PC2 (GeneID 57818) [SID160746733] | total luciferase, z-score = -0.188; total luciferase, % of control = 78.1
G6PC2 (GeneID 57818) [SID160746734] | total luciferase, z-score = 0.158; total luciferase, % of control = 85
CES5A (GeneID 221223) [SID160730790] | total luciferase, z-score = 0.749; total luciferase, % of control = 96.8
CES5A (GeneID 221223) [SID160761630] | total luciferase, z-score = 6.06 (active); total luciferase, % of control = 202
CES5A (GeneID 221223) [SID160761631] | total luciferase, z-score = 0.832; total luciferase, % of control = 98.4

Not a retest: entries from further up.
LINC02694 (GeneID 400359) [SID160766959] | total luciferase, z-score = 1.47; total luciferase, % of control = 111
G6PC2 (GeneID 57818) [SID160746732] | total luciferase, z-score = 0.945; total luciferase, % of control = 101

Next entries follow.
MEN1 (GeneID 4221) [SID160777150] | total luciferase, z-score = -0.411; total luciferase, % of control = 73.7
MEN1 (GeneID 4221) [SID160777151] | total luciferase, z-score = -0.125; total luciferase, % of control = 79.4
MEN1 (GeneID 4221) [SID160777152] | total luciferase, z-score = 2.07; total luciferase, % of control = 123
TEDC2 (GeneID 80178) [SID160750164] | total luciferase, z-score = 0.6; total luciferase, % of control = 93.8
TEDC2 (GeneID 80178) [SID160750165] | total luciferase, z-score = -0.122; total luciferase, % of control = 79.5
TEDC2 (GeneID 80178) [SID160750166] | total luciferase, z-score = -0.484; total luciferase, % of control = 72.3
ZNF655 (GeneID 79027) [SID160724538] | total luciferase, z-score = -0.832; total luciferase, % of control = 65.3
ZNF655 (GeneID 79027) [SID160724539] | total luciferase, z-score = 0.274; total luciferase, % of control = 87.3
ZNF655 (GeneID 79027) [SID160731905] | total luciferase, z-score = -1.45; total luciferase, % of control = 53.1
